# According to patent US20220125897A1, “Antithrombin-III Treatment of Traumatic Brain Injury” (THE TRUSTEES OF THE UNIVERSITY OF PENNSYLVANIA, priority 2020, published 2022):
# System: CD1 mice, controlled cortical impact (CCI) or sham craniotomy
# Assay: Brain water content (brain edema, wet-to-dry ratio)
# Assay type: in vivo
# Settings: 48 hours
# Procedure: Procedures received approval from the University of Pennsylvania Institutional Animal Care and Use Committee. CD1 adult male mice (25-30 g) (Charles River Laboratories; Wilmington, Mass.) were acclimated in standard housing with ad libitum water and chow for 5 days before experiments and immediately after recovery from brain injury. Mice underwent controlled cortical impact (CCI) or sham craniotomy (SHAM) and then received one of three agents: 1) subcutaneous enoxaparin (ENX, 1.5 mg/kg) (Winthrop, Sanofi-Aventis; Bridgewater, N.J.); intravenous (femoral vein) pharmaceutical grade antithrombin-III (AT-III, 250 IU/kg, donated by Grifols S.A. (Durham, N.C.); or 3) an equal volume of IV normal saline (0.9% NS, Baxter; Deerfield, Ill.). Doses were administered 0.5 and 24 hours after the CCI (FIG. 1).
# Seventy-one (71) mice were randomly assigned to one of six groups: 1) sham craniotomy and vehicle (VH, 0.9% normal saline, Baxter Healthcare Corporation; Deerfield, Ill.), (SHAM +VEH, n=9); 2) sham craniotomy and ENX (SHAM+ENX, n=8); 3) sham craniotomy and AT-III (SHAM+AT-III, n=9); 4) TBI and vehicle (CCI+VEH, n=19); TBI and ENX (CCI+ENX, n=13); and 6) TBI and AT-III (CCI+AT-III, n=13).
# CCI was used to replicate TBI through a well-validated rodent model (16, 17). Briefly, on day 1, mice were anesthetized with intraperitoneal ketamine (Hospira; Lake Forest, Ill.), xylazine (Alcorn; Decatur, Ill.), and acepromazine (Boehringer Ingelheim; St. Joseph, Mo.) (KXA: 100, 10, 1 mg/kg, respectively) and place prone in a stereotactic device. After scalp exposure, a left-sided 4-mm craniotomy was created between bregma and lambda structures using a dental drill (Henry Schein; Melville, N.Y.) without violating the dura.
# Forty-eight hours after CCI, mice were sacrificed and excised brains were separated into injured (ipsilateral) and uninjured (contralateral) hemispheres. Wet weight (WW) was immediately assessed. Dry weight (DW) was assessed after 72 hours of dehydration at 70° C. Tissue water content was calculated using wet-to-dry ratios: % water content=100×(WW−DW)/WW.
Substance,Contralateral (%) Mean brain water content [%],Contralateral (%) Median brain water content [%],Ipsilateral (%) Mean brain water content [%],Ipsilateral (%) Median brain water content [%],Ratio (ipsi/contra) brain water content
antithrombin-III [AT-III],77.78,77.84,77.67,77.69,0.998
"enoxaparin [ENX, reference compound]",77.5164,77.68,77.4716,77.7,0.999
